Some entries repeat one wording, which the source may state once for all of them.
Assay: evaluation of various acid addition salts
Format: physicochemical
Conditions: for Observation: precipitation of the acid addition salt: even with variation of the solvent
Excerpt: Evaluation of various acid addition salts of 2-{3-[4-(2-t-butyl-6-trifluoromethyl-4-pyrimidyl)-1-piperazinyl)propylthio}-4-5 pyrimidinol

Citrate
Observation: precipitation of the acid addition salt: the acid addition salt could not be

Malate
Observation: handling of the salt: difficult to handle
Observation: precipitation of the acid addition salt: precipitates slowly overnight as a

Lactate
Observation: precipitation of the acid addition salt: the acid addition salt could not be

Tartrate
Observation: precipitation of the acid addition salt: the acid addition salt could not be

Reference: US6486162B2, “2-{3-[4-(2-t-butyl-6-trifluoromethyl-4-pyrimidinyl)-1- piperazinyl] propylthio}-4-pyrimidinol fumarate” (Abbott Laboratories, priority 1997, dated 2002)
